The list shows a part of the results.
Compound: COc1ccc(Cn2ccc3cc(C)c(C(=O)NO)cc32)cc1
Experiment: dose-dependent thermal stabilisation call (2D-TPP, DLPTP, 10% FDR) (binary (1 = stabilised)); higher = stabilised by the compound
Details: system: HL-60 intact cells; concentration range 0.04-10 µM
Experimental: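 2D thermal proteome profiling in intact HL-60 cells treated with BRD-3811 (0, 0.04, 0.29, 2, 10 uM) for 90 min at 37 C, then heated 3 min at one of 12 temperatures (42-63.9 C). Soluble protein was quantified by TMT10 MS. The value is the DLPTP call of the paper: dose-dependent thermal stabilisation over all temperatures at 10% FDR (F-test of a dose-response against a flat model); one experiment, one call per tested protein.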

Sequences of proteins named here, by UniProt entry; tags and fusion partners are left off. A change or cut given only in a name is not applied to a line headed by its entry.
UniProt Q9BX63: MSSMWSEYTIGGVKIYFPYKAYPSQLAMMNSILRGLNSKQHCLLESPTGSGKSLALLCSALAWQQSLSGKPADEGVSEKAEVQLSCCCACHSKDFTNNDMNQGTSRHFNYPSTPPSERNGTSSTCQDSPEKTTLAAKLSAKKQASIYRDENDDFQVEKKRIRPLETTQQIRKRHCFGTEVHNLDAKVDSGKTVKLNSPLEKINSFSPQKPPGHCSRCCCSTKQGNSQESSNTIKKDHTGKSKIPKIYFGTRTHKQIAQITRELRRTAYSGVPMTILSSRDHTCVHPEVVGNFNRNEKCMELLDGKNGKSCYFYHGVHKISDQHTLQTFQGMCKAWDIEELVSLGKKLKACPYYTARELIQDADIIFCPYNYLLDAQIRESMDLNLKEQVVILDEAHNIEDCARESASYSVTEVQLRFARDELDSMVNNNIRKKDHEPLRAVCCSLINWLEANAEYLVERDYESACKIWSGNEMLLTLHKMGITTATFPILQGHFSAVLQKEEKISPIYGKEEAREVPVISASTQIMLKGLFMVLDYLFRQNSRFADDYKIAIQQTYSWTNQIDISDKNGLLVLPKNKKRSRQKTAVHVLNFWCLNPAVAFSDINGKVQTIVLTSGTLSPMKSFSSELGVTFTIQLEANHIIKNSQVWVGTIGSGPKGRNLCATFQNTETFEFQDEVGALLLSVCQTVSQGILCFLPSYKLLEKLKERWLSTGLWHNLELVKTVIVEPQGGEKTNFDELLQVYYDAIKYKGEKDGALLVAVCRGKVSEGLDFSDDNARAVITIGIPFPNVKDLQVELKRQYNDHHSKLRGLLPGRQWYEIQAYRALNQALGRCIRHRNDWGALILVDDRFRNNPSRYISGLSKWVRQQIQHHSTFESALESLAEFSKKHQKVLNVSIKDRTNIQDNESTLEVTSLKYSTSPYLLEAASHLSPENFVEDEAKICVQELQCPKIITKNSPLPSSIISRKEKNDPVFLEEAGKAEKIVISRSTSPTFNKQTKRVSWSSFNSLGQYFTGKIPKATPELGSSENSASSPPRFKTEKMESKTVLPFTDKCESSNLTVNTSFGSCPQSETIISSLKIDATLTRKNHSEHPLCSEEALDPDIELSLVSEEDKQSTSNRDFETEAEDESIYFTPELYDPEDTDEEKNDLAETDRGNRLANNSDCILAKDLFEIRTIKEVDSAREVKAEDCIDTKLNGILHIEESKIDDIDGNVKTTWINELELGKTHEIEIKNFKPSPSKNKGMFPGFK
UniProt Q1ED39: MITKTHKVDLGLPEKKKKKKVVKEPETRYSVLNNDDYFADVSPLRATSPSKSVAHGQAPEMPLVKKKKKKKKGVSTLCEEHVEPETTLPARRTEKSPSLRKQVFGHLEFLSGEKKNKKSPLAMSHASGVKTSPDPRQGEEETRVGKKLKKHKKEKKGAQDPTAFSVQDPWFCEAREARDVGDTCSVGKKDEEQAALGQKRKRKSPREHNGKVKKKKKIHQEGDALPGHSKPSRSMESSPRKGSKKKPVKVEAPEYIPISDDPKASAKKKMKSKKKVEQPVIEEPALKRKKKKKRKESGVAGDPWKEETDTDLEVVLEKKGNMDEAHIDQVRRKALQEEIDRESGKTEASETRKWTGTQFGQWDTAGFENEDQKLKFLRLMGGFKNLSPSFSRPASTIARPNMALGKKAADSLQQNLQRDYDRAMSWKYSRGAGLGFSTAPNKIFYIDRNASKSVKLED
UniProt P27449, whole entry: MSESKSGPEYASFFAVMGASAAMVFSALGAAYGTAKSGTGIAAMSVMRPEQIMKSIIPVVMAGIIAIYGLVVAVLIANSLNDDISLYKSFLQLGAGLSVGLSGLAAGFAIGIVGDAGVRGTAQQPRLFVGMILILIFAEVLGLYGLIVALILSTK
UniProt P53004: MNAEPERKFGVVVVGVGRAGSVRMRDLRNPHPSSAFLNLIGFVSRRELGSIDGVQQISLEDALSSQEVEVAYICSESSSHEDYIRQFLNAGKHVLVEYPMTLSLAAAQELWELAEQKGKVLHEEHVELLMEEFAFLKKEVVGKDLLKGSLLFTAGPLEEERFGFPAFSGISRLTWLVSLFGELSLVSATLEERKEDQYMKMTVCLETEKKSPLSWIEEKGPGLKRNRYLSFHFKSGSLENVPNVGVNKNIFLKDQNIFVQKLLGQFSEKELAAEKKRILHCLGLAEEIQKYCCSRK
UniProt Q6NUT3: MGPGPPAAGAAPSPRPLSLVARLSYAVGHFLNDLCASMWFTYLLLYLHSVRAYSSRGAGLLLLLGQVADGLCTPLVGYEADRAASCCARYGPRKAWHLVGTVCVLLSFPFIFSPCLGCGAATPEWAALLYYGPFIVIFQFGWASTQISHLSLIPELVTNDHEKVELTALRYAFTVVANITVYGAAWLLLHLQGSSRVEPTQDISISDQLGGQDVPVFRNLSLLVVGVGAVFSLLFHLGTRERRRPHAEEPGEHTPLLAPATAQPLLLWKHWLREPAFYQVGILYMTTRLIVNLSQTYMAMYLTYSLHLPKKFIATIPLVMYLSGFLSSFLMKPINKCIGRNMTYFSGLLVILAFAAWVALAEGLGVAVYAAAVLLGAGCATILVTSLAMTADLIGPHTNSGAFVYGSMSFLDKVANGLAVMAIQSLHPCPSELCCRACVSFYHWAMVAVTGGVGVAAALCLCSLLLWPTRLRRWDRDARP
UniProt Q99700, whole entry: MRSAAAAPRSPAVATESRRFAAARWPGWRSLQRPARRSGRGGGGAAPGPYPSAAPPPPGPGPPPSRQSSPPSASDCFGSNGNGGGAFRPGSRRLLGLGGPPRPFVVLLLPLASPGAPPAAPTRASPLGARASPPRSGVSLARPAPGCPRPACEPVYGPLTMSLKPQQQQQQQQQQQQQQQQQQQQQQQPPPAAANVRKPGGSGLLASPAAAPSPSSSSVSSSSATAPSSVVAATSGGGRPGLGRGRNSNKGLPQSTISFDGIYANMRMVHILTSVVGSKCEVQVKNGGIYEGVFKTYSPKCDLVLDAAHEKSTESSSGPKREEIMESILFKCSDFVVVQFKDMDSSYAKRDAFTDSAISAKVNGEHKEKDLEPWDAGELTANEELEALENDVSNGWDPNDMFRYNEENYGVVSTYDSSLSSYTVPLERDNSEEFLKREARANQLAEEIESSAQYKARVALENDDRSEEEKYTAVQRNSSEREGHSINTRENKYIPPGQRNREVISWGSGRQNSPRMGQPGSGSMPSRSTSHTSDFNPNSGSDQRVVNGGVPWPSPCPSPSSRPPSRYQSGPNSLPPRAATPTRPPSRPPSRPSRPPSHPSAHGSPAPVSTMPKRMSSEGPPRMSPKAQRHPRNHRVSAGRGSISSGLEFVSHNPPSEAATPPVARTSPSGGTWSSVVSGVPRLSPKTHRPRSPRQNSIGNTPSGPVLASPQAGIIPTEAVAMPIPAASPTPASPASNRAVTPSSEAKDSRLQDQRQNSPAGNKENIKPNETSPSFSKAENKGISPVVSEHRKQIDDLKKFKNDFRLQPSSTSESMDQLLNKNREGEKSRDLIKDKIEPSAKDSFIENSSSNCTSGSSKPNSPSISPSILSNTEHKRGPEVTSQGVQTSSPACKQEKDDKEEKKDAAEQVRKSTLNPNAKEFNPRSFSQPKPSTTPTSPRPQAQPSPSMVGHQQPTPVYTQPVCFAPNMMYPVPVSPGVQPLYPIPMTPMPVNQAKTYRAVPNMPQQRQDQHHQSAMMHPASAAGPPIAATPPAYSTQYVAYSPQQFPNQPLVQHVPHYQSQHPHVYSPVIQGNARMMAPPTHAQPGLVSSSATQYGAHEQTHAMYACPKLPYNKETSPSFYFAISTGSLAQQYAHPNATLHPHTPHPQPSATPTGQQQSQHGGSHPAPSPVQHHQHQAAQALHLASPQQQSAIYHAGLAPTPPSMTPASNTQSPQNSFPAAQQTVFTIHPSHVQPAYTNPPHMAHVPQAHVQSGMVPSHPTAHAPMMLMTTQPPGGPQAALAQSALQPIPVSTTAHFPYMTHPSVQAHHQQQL
UniProt Q9NRP2: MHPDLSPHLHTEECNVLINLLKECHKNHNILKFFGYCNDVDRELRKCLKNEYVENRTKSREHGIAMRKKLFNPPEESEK
UniProt Q7KYR7: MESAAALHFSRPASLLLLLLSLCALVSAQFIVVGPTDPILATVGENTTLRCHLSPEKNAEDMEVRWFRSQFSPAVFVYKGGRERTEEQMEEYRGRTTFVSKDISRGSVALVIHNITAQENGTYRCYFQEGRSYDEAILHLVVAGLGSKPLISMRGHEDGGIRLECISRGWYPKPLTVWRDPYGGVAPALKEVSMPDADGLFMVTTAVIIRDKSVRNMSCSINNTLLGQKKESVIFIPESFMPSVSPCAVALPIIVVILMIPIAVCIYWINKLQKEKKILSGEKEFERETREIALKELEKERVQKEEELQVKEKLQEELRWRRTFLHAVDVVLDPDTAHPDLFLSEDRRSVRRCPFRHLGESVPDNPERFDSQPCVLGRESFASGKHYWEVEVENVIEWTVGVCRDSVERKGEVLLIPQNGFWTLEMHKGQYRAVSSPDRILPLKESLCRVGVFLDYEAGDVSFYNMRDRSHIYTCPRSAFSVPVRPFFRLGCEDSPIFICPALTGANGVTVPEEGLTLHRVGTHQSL
UniProt Q99933: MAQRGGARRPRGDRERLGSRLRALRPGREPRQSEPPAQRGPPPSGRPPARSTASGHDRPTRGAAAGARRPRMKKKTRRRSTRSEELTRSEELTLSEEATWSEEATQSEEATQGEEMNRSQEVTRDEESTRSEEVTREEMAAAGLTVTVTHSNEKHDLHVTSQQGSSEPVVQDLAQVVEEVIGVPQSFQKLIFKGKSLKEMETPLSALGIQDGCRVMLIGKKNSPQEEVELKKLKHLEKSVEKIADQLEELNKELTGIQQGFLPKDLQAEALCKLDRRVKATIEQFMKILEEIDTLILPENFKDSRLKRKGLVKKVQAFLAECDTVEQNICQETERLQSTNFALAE
UniProt Q8NB49: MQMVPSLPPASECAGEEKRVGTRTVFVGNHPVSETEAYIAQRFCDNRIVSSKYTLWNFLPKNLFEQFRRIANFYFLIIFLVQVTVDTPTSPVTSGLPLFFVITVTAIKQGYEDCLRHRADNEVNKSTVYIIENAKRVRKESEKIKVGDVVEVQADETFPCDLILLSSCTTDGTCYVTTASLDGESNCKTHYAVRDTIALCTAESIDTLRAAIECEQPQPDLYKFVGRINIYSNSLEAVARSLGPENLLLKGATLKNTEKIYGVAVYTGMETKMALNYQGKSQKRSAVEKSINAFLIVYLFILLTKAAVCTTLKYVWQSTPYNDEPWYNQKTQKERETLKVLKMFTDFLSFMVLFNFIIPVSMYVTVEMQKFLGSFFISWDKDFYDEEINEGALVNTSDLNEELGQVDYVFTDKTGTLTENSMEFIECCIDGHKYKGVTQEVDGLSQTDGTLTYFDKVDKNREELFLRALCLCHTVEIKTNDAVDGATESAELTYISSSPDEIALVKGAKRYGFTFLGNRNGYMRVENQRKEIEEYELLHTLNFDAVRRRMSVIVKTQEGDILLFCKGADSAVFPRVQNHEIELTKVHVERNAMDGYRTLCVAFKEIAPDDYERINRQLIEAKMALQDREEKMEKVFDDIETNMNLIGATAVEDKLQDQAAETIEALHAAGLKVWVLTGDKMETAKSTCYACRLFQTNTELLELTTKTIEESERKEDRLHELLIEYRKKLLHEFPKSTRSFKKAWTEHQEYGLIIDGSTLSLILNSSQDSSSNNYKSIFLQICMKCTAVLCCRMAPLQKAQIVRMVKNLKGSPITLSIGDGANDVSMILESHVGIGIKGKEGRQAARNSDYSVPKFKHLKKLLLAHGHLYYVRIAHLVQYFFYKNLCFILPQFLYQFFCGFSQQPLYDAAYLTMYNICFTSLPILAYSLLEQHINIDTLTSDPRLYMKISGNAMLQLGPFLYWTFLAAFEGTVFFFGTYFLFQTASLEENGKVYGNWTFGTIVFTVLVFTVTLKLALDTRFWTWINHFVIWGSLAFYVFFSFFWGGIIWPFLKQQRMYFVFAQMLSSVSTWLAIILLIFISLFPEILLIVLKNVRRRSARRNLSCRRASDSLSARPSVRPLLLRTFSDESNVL
UniProt Q9H7C9: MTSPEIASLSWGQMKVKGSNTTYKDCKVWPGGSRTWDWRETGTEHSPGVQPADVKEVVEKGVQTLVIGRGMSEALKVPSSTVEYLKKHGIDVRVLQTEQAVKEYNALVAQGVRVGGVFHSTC
UniProt Q7L1Q6: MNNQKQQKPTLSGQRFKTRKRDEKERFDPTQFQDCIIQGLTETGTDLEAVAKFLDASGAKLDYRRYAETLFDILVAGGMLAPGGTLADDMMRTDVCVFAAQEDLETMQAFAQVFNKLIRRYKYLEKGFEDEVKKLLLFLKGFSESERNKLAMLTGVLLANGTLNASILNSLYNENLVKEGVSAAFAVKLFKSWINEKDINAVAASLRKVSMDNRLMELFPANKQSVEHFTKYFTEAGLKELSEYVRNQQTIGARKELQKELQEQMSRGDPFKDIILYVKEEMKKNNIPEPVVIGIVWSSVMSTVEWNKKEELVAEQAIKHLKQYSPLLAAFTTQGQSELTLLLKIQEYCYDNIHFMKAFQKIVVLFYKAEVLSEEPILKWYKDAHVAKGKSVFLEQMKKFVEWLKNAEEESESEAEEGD

Row | Target | dose-dependent thermal stabilisation call
1 | C19ORF29 (UniProt Q8WUQ7) | inactive: 0
2 | BRIP1 (UniProt Q9BX63) | inactive: 0
3 | C16ORF62 (UniProt Q7Z3J2) | inactive: 0
4 | BCR (UniProt P11274) | inactive: 0
5 | C16ORF88 (UniProt Q1ED39) | inactive: 0
6 | ATP6V0C (UniProt P27449) | inactive: 0
7 | BLVRA (UniProt P53004) | inactive: 0
8 | C19ORF28 (UniProt Q6NUT3) | inactive: 0
9 | ATP13A3 (UniProt Q9H7F0) | inactive: 0
10 | BAG4 (UniProt O95429) | inactive: 0
11 | ATXN2 (UniProt Q99700) | inactive: 0
12 | BPTF (UniProt Q12830) | inactive: 0
13 | ATP5F1 (UniProt P24539) | inactive: 0
14 | C16ORF61 (UniProt Q9NRP2) | inactive: 0
15 | BTN2A1 (UniProt Q7KYR7) | inactive: 0
16 | C14ORF156 (UniProt Q9GZT3) | active: 1
17 | BAG1 (UniProt Q99933) | inactive: 0
18 | ATP11C (UniProt Q8NB49) | inactive: 0
19 | C18ORF19 (UniProt Q96ND0) | inactive: 0
20 | C11ORF67 (UniProt Q9H7C9) | inactive: 0
21 | BUD13 (UniProt Q9BRD0) | inactive: 0
22 | C14ORF133 (UniProt Q9H9C1) | inactive: 0
23 | BZW1 (UniProt Q7L1Q6) | inactive: 0
24 | C12ORF73 (UniProt Q69YU5) | inactive: 0
25 | ATP11B (UniProt Q9Y2G3) | inactive: 0
26 | C16ORF35 (UniProt Q12980) | inactive: 0

Laid out differently: results already given

| Row | Target | dose-dependent thermal stabilisation call |
| --- | --- | --- |
| 13 | ATP5F1 (UniProt P24539) | inactive: 0 |
| 16 | C14ORF156 (UniProt Q9GZT3) | active: 1 |

Reference: the supplement of paper PMC7666118
